{"source": "PubChem BioAssay AID686943 (Drosophila RNAi Screening Center, 2013)", "assay": "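Search across the genome for regulators of signalling from receptor tyrosine kinase to ERK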 (primary screen)", "system": "Drosophila S2R+ haemocyte-like cells expressing YFP-tagged ERK (Rolled)", "reagents": "long dsRNA against Drosophila genes", "challenge": "insulin stimulation versus unstimulated cells; dose and duration not given", "detection": "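Antibody staining for doubly phosphorylated ERK divided by ERK-YFP signal, as plate z-scores, in insulin-treated and untreated cells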", "scale": "replicate 1, z-score of dpERK with insulin: higher = more active ERK per ERK-YFP after insulin", "note": "The deposit covers about 23,000 reagents; below is an unselected part of those that have a named target and a result. 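Extra replicates exist only for a retested subset of genes; insulin dose and duration not given; both raised and lowered dpERK matter.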 Not all columns of the deposit are shown. No sequences are given here. The record does not give: the amount of reagent, the time to read-out."}
{"Target gene": "dachs", "dsRNA": "DRSC01026", "replicate 1, z-score of dpERK with insulin": 0.95}
{"Target gene": "dachs", "dsRNA": "DRSC02072", "replicate 1, z-score of dpERK with insulin": -0.28}
{"Target gene": "dachs", "dsRNA": "DRSC02191", "replicate 1, z-score of dpERK with insulin": 0.29}
{"Target gene": "Gr58b", "dsRNA": "DRSC04140", "replicate 1, z-score of dpERK with insulin": 0.57}
{"Target gene": "Jhbp13", "dsRNA": "DRSC02913", "replicate 1, z-score of dpERK with insulin": 0.11}
{"Target gene": "Lrr47", "dsRNA": "DRSC03365", "replicate 1, z-score of dpERK with insulin": -0.81}
{"Target gene": "CG12325", "dsRNA": "DRSC06130", "replicate 1, z-score of dpERK with insulin": 0.16}
{"Target gene": "D", "dsRNA": "DRSC11132", "replicate 1, z-score of dpERK with insulin": 0.27}
{"Target gene": "CG4239", "dsRNA": "DRSC19885", "replicate 1, z-score of dpERK with insulin": -1.15}
{"Target gene": "Unc-115a", "dsRNA": "DRSC12749", "replicate 1, z-score of dpERK with insulin": -0.41}
{"Target gene": "pot", "dsRNA": "DRSC19850", "replicate 1, z-score of dpERK with insulin": 0.41}
{"Target gene": "CG34198", "dsRNA": "DRSC05803", "replicate 1, z-score of dpERK with insulin": 1.46}
{"Target gene": "CG32187", "dsRNA": "DRSC10521", "replicate 1, z-score of dpERK with insulin": 0.44}
{"Target gene": "CG12862", "dsRNA": "DRSC06202", "replicate 1, z-score of dpERK with insulin": -0.22}
{"Target gene": "amx", "dsRNA": "DRSC18736", "replicate 1, z-score of dpERK with insulin": -0.59}
{"Target gene": "CG42271", "dsRNA": "DRSC19809", "replicate 1, z-score of dpERK with insulin": -0.18}
{"Target gene": "CG42271", "dsRNA": "DRSC22894", "replicate 1, z-score of dpERK with insulin": 0.25}
{"Target gene": "Sgsh", "dsRNA": "DRSC14771", "replicate 1, z-score of dpERK with insulin": 0.02}
{"Target gene": "CG6000", "dsRNA": "DRSC15938", "replicate 1, z-score of dpERK with insulin": 0.38}
{"Target gene": "Alg13", "dsRNA": "DRSC14864", "replicate 1, z-score of dpERK with insulin": 0.15}
{"Target gene": "CG8008", "dsRNA": "DRSC07053", "replicate 1, z-score of dpERK with insulin": -0.4}
{"Target gene": "Muc96D", "dsRNA": "DRSC13709", "replicate 1, z-score of dpERK with insulin": 1.02}
{"Target gene": "Muc96D", "dsRNA": "DRSC21609", "replicate 1, z-score of dpERK with insulin": 0.97}
{"Target gene": "Zip102B", "dsRNA": "DRSC17155", "replicate 1, z-score of dpERK with insulin": 0.33}
{"Target gene": "GILT3", "dsRNA": "DRSC14672", "replicate 1, z-score of dpERK with insulin": 0.08}
{"Target gene": "Rph", "dsRNA": "DRSC17790", "replicate 1, z-score of dpERK with insulin": -1.7}
{"Target gene": "Cpr78E", "dsRNA": "DRSC11807", "replicate 1, z-score of dpERK with insulin": 0.4}
{"Target gene": "dmrt93B", "dsRNA": "DRSC15865", "replicate 1, z-score of dpERK with insulin": 0.58}
{"Target gene": "CG30389", "dsRNA": "DRSC04077", "replicate 1, z-score of dpERK with insulin": -1.45}
{"Target gene": "CG30389", "dsRNA": "DRSC04452", "replicate 1, z-score of dpERK with insulin": 0.63}
{"Target gene": "Sxl", "dsRNA": "DRSC18721", "replicate 1, z-score of dpERK with insulin": -0.15}
{"Target gene": "Sxl", "dsRNA": "DRSC18722", "replicate 1, z-score of dpERK with insulin": 1.1}
{"Target gene": "Sxl", "dsRNA": "DRSC21490", "replicate 1, z-score of dpERK with insulin": -1.93}
